Measured values reported in PubChem BioAssay AID226 (DTP/NCI, 2004).
The list shows only some results of the screen, not a fair sample: its compounds were picked by chemical class. Other doses and runs of a compound may be missing. T/C is the treated group as % of the vehicle group. Where survival is the endpoint, the PubChem record calls one and a half times the control and up active, and a quarter to a half above the control has no call in these data; cut-offs in other NCI protocols can differ. Schedule codes are those of the source, read here as Q, the interval in days (D) or hours (H), X, the number of doses. Some entries show no survivor count and are marked so; the dose need not have been tolerated. Some entries hold several experiments; the results are listed from low to high.

System: B6C3F1 mice, intracerebral ependymoblastoma, median survival T/C
Assay: NCI In Vivo Anticancer Drug Screen. Data for tumor model Ependymoblastoma (intracerebral) in B6C3F1 mice
Settings: T/C endpoint: median survival time, vehicle: saline, higher T/C = longer survival
Experimental: The antitumor activity of compounds was measured in mice bearing transplantable tumors. Survival or tumor size were measured and the results are expressed as the measurement made in the treated group (T) divided by the measurement made in the vehicle treated control group (C). The tumor model used in this assay is Ependymoblastoma (intracerebral) in B6C3F1 mice

SMILES: CC(=O)OCC12CCC(C)=CC1OC1C(O)C(OC(C)=O)C2(C)C12CO2 (configuration not stated)
- T/C (dose: 0.5 mg/kg/injection, schedule: Q01DX005 (ip)): 103 [survivor count not shown] and 105 % of control [survivor count not shown]
- T/C (dose: 1.0 mg/kg/injection, schedule: Q01DX005 (ip)): 104 [survivor count not shown] and 107 % of control [survivor count not shown]
- T/C (dose: 2.0 mg/kg/injection, schedule: Q01DX005 (ip)): 103 [survivor count not shown], 104 [survivor count not shown], 106 % of control [survivor count not shown]
- T/C (dose: 4.0 mg/kg/injection, schedule: Q01DX001 (ip)): 100 [survivor count not shown], 101 [survivor count not shown], 107 % of control [survivor count not shown]
- T/C (dose: 4.0 mg/kg/injection, schedule: Q01DX005 (ip)): 100 [survivor count not shown] and 110 % of control [survivor count not shown]
- T/C (dose: 8.0 mg/kg/injection, schedule: Q01DX001 (ip)): 91 [survivor count not shown], 104 [survivor count not shown], 112 % of control [survivor count not shown]
- T/C (dose: 16.0 mg/kg/injection, schedule: Q01DX001 (ip)): 87 [survivor count not shown], 95 [survivor count not shown], 105 % of control [survivor count not shown]
